Data on seven substances can be found in patent US20100160220A1.

Amino acid sequences for entries named in this document (tags omitted). A change or cut given only in a name is not applied to a line headed by its entry. Chains listed by the source or under a name are the forms on record and can include a tag or linker. Residues count along the entry.
UniProt P37173, residues 23-567: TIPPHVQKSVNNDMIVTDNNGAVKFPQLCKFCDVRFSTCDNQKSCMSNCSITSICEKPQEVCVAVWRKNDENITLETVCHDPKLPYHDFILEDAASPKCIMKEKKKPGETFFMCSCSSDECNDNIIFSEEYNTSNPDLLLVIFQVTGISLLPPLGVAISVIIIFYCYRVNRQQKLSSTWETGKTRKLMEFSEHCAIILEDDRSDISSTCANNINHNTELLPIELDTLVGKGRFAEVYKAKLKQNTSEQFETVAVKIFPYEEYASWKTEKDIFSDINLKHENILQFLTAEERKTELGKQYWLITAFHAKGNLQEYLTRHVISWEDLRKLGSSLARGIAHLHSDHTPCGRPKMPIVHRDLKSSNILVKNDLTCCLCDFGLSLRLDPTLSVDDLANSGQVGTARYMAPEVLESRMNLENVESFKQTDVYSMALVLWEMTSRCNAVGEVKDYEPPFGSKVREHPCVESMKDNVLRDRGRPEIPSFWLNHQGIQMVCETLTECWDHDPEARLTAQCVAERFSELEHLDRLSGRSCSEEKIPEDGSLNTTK
UniProt Q03431, residues 27-593: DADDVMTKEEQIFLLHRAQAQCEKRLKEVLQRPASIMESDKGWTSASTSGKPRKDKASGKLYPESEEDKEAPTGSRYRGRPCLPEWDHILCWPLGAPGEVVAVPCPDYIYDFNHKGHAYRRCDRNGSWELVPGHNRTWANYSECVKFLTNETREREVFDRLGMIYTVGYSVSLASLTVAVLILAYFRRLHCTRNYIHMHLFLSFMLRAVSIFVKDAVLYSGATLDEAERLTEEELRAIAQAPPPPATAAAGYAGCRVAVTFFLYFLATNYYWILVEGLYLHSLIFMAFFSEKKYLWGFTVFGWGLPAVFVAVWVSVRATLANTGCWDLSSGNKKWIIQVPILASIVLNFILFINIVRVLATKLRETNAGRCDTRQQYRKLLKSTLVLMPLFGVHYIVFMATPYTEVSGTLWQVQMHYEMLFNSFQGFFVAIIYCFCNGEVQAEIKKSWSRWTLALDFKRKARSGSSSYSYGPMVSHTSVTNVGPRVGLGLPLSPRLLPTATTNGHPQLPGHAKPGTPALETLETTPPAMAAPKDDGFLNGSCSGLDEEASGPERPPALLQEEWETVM
UniProt P01270, residues 32-65: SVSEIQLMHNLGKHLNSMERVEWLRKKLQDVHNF
Flag-BMPRII short form (Q13873, form named): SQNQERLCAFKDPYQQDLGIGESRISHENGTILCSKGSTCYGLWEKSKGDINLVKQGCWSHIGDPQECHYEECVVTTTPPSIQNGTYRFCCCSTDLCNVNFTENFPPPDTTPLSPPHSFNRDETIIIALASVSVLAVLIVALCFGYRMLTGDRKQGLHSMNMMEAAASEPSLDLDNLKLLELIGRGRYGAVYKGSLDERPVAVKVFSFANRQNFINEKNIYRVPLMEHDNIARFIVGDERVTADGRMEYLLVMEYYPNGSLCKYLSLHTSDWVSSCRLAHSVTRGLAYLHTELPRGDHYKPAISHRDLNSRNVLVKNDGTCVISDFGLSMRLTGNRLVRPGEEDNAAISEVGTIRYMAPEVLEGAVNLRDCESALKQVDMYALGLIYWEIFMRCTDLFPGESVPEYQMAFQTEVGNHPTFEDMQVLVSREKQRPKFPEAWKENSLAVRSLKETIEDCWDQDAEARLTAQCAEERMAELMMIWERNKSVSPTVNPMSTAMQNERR
UniProt O75581: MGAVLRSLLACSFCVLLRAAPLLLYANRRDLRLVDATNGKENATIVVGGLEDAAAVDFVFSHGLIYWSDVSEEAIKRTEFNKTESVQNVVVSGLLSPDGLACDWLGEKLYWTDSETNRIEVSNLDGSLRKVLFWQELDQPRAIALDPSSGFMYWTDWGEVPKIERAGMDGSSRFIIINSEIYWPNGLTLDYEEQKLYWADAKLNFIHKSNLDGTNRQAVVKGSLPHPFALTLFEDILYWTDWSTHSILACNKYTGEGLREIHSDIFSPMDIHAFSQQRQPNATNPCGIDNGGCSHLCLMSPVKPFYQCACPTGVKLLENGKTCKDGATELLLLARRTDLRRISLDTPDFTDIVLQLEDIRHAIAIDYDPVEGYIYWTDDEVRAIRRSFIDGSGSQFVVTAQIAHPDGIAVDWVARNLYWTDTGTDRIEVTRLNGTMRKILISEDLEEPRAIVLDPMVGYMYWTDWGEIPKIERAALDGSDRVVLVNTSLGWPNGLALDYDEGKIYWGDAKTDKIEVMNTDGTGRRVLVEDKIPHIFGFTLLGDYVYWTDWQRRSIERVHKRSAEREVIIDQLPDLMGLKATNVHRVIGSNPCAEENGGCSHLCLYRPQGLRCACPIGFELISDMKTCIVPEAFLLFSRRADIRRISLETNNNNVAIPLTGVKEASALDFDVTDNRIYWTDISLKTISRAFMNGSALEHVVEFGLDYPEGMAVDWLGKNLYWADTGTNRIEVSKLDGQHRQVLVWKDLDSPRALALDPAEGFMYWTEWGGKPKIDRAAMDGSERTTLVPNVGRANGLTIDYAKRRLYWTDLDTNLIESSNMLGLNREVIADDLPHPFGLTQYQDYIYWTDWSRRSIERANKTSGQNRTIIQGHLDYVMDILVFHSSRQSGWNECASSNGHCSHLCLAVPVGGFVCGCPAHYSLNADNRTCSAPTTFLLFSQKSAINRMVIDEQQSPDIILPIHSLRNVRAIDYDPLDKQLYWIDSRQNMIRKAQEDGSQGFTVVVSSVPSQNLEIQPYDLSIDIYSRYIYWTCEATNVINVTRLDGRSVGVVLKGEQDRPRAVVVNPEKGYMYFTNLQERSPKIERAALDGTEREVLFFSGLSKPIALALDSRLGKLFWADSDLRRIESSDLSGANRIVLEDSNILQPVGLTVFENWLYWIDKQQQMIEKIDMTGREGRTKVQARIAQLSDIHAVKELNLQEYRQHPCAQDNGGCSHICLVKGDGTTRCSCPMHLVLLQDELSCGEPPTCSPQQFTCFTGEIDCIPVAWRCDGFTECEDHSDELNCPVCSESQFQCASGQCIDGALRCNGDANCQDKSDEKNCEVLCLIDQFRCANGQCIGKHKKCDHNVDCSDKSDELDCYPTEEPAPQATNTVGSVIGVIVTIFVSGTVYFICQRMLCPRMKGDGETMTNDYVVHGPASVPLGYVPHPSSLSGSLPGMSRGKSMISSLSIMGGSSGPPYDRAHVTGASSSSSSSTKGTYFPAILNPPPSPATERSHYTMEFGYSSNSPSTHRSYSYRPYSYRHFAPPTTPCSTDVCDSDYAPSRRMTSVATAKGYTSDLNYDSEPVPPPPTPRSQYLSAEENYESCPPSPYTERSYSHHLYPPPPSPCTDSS
UniProt P27037, residues 20-513: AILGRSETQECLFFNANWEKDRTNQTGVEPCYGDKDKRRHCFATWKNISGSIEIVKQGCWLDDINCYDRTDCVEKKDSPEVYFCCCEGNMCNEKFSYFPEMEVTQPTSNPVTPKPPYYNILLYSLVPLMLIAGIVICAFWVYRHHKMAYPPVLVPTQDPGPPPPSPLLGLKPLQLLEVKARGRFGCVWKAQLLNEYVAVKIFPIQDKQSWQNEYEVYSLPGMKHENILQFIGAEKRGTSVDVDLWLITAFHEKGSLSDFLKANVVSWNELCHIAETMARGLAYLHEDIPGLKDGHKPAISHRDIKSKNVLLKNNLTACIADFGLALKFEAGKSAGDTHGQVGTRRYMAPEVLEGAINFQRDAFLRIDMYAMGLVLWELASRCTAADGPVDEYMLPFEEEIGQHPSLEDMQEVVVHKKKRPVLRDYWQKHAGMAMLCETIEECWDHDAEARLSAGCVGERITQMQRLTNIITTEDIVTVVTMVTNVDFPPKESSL
UniProt Q13705, residues 19-512: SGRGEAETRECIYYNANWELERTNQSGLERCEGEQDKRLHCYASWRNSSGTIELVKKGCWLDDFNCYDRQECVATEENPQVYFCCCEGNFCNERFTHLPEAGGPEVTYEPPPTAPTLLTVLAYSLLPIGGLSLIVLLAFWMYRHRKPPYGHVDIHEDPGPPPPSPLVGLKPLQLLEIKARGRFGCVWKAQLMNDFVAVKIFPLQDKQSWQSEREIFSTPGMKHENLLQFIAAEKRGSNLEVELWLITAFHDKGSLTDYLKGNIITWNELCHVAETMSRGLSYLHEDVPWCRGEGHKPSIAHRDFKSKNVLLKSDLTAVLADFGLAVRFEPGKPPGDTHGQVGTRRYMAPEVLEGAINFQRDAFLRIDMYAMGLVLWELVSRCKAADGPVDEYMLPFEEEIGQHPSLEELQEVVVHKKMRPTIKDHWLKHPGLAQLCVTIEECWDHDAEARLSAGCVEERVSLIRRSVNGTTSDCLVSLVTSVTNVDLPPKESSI

Results are given in words; binding and its absence hold for the method and conditions named. For some assays here: In cells and extracts the contact can be indirect. Some results given as binding are weak or reduced against the parent protein; the word gives no strength.

The target of experiment [1] is Flag-TGFβRII (UniProt P37173). Put plainly: Biotin-PTH (1-34) labeling of Flag-TGFβRII-transfected 293 cells; Western blot and anti-Flag IP. For orientation: In western blotting, separated proteins are transferred to a membrane and probed.
The target in experiment [2] is Flag-TGFβRII (UniProt P37173). Put plainly: 293 cells transfected with Flagged TGFβRII labeled with Biotin-PTH (1-34); anti-Flag IP, anti-Biotin Western blot.
Experiment [3] deals with PTH1R tagged with HA (human) (UniProt Q03431). Put plainly: reciprocal co-IP (anti-Flag / anti-HA), 293 cells.
For experiment [4] the target is unchanged. Briefly: interaction test with conditioned medium; format not described.
Experiment [5] deals with Flag-TGFβRII (UniProt P37173). Put plainly: fluorescence microscopy, HEK293-PTH1R cells expressing Flag-tagged TGFβRII.
Experiment [6] concerns the target PTH1R tagged with HA (human) (UniProt Q03431). Put plainly: co-IP anti-HA / anti-VSVG, HEK 293 cells.
The target is the same in experiment [7]. Put plainly: co-IP anti-VSVG, blot anti-HA, 293HEK cells.
The target of experiment [8] is endogenous PTH1R of embryonic kidney 293 / 293T cells (human) (UniProt Q03431). Put plainly: co-IP with anti-ActRII, Western blot; 293 cells.
For experiment [9] the target is unchanged. Briefly: co-IP with anti-ActRII, blot anti-PTH1R; 293 cells with vehicle or PTH (1-34) 50 nM.
Experiment [10] shares this target. Put plainly: co-IP with anti-ActRIIB, Western blot; 293 cells.
Experiment [11] has the same target. Put plainly: co-IP with anti-ActRIIB, blot anti-PTH1R; 293 cells with vehicle or PTH (1-34) 50 nM.

As for “Biotin-PTH (1-34) (from UniProt P01270 32-65) (peptide)”, the binding entry with Flag-TGFβRII [1] and with Flag-TGFβRII [2] was “binds” each time. For the substance “Flag-BMPRII short form (from UniProt Q13873 27-530) (receptor)”, the binding entry in [3] is “binds”. Take “LRP6N-IgG (conditioned medium) (from UniProt O75581 20-1370) (Fc fusion)”: in experiment [4], the binding entry was “binds”.

Consider “PTH^TMR (red fluorescent PTH (1-34)) (from UniProt P01270 32-65) (peptide)”, for which, in the experiment with Flag-TGFβRII [5], the binding result is listed as “binds”. As to “VSVG-tagged LRP6N (from UniProt O75581 20-1393) (receptor)”, the binding result in [6] and in [7] was “binds” each time. With “endogenous ActRII of embryonic kidney 293 cells (from UniProt P27037 20-513) (receptor)”, the binding entry in experiment [8] and in experiment [9] was “binds” each time. For the substance “endogenous ActRIIB of embryonic kidney 293 cells (from UniProt Q13705 19-512) (receptor)”, the binding result in [10] and in experiment [11] was “binds” in each case.
